Assay results published in paper PMC11344278, “Structural and biochemical characterization of the C‐terminal region of the human RTEL1 helicase” (Protein Science : A Publication of the Protein Society, 2024).
Results are given in words; binding and its absence hold for the method and conditions named.

Molecular target: human RTEL1 HHD2 fragment (second harmonin homology domain) (human) (UniProt Q9NZ71)
Assay: SEC-SAXS; in-line Superdex 75 Increase column, 0.2 mL/min, 20 °C; 50 mM Hepes pH 7 (HHD1: TRIS pH 8), 150 mM NaCl, 10% glycerol, 1 mM TCEP; EMBL P12 beamline; both purified

binding: no binding (tested: 6.2 mg/mL)
B1: human RTEL1 HHD2 fragment (second harmonin homology domain) (domain or fragment, UniProt Q9NZ71 1053-1147)
chain: GKQGQHAVSAYLADARRALGSAGCSQLLAALTAYKQDDDLDKVLAVLAALTTAKPEDFPLLHRFSMFVRPHHKQRFSQTCTDLTGRPYPGMEPPG
